No constants are given. Whether binding was seen depends on the method and setting. Binding seen in cells or lysates may run through a third protein. Some binding calls cover weakened binding; strength is not graded here.
What was measured:
VE-cadherin (Vascular …) = molecular target: T1, VE-cadherin (Vascular Endothelial-cadherin) (human (endogenous in HUVEC)), P33151; experiment: co-IP; HUVEC treated with PAI-039 (25 μM) or solvent (DMSO 0.1%) for four hours; NP-40 lysis buffer (25 mM Tris, 100 mM NaCl, 10 mM MgCl2, 10% glycerol, 1% Nonidet P-40, pH 7.4); lysate incubated with 2 μg mouse monoclonal VE-cadherin antibody and protein G-sepharose at 4°C; five washes; western blot; details: remark: other sources report otherwise
T1 chain: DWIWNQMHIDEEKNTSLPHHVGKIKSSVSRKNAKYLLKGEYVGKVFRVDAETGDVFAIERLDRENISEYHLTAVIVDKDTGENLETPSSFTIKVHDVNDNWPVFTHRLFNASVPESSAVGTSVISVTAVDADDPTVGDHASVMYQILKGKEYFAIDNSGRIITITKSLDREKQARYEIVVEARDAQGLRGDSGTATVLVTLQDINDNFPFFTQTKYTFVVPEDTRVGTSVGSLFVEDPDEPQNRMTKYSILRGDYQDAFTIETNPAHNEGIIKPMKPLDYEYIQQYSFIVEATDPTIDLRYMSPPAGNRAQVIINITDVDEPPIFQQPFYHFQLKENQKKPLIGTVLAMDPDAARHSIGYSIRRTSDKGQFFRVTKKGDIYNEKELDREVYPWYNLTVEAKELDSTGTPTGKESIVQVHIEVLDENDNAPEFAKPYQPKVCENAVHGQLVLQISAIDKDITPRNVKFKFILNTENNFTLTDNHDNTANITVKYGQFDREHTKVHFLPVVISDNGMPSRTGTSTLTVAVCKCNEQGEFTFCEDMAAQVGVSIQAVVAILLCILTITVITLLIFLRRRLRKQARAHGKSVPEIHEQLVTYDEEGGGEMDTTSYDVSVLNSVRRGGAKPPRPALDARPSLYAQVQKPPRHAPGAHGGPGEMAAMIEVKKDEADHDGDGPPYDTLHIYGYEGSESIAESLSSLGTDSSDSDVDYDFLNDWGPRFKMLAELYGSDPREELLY

[1] = molecular target: T2, VE-cadherin (Vascular Endothelial-cadherin) (human (endogenous in HUVEC)) (UniProt P33151); experiment: as above
T2 sequence: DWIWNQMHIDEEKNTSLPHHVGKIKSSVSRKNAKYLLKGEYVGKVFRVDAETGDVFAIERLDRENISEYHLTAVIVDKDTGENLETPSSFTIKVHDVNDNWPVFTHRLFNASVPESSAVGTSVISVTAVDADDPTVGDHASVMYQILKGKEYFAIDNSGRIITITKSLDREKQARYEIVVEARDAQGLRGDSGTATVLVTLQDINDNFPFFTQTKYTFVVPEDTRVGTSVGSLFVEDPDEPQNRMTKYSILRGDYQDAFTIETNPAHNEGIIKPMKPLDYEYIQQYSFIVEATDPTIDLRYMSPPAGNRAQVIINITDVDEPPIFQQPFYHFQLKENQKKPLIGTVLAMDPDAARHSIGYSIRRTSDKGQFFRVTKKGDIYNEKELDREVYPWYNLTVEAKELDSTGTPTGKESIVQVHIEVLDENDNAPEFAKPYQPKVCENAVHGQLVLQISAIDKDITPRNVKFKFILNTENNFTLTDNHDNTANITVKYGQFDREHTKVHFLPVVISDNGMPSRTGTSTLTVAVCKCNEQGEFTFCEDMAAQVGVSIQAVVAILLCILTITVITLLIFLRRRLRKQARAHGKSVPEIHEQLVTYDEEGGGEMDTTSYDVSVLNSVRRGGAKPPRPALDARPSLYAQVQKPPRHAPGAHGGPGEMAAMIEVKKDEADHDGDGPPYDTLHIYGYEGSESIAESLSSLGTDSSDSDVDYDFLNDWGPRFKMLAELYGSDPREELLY

| Binder | binding (VE-cadherin (Vascular …)) | binding [1] |
| --- | --- | --- |
| β-catenin, P35222 1-781 (protein) MATQADLMELDMAMEPDRKAAVSHWQQQSYLDSGIHSGATTTAPSLSGKGNPEEEDVDTSQVLYEWEQGFSQSFTQEQVADIDGQYAMTRAQRVRAAMFPETLDEGMQIPSTQFDAAHPTNVQRLAEPSQMLKHAVVNLINYQDDAELATRAIPELTKLLNDEDQVVVNKAAVMVHQLSKKEASRHAIMRSPQMVSAIVRTMQNTNDVETARCTAGTLHNLSHHREGLLAIFKSGGIPALVKMLGSPVDSVLFYAITTLHNLLLHQEGAKMAVRLAGGLQKMVALLNKTNVKFLAITTDCLQILAYGNQESKLIILASGGPQALVNIMRTYTYEKLLWTTSRVLKVLSVCSSNKPAIVEAGGMQALGLHLTDPSQRLVQNCLWTLRNLSDAATKQEGMEGLLGTLVQLLGSDDINVVTCAAGILSNLTCNNYKNKMMVCQVGGIEALVRTVLRAGDREDITEPAICALRHLTSRHQEAEMAQNAVRLHYGLPVVVKLLHPPSHWPLIKATVGLIRNLALCPANHAPLREQGAIPRLVQLLVRAHQDTQRRTSMGGTQQQFVEGVRMEEIVEGCTGALHILARDVHNRIVIRGLNTIPLFVQLLYSPIENIQRVAAGVLCELAQDKEAAEAIEAEGATAPLTELLHSRNEGVATYAAAVLFRMSEDKPQDYKKRLSVELTSSLFRTEPMAWNETADLGLDIGAQGEPLGYRQDDPSYRSFHSGGYGQDALGMDPMMEHEMGGHHPGADYPVDGLPDLGHAQDLMDGLPPGDSNQLAWFDTDL | binds |  |
| p120 catenin (protein, UniProt O60716 1-968) MDDSEVESTASILASVKEQEAQFEKLTRALEEERRHVSAQLERVRVSPQDANPLMANGTLTRRHQNGRFVGDADLERQKFSDLKLNGPQDHSHLLYSTIPRMQEPGQIVETYTEEDPEGAMSVVSVETSDDGTTRRTETTVKKVVKTVTTRTVQPVAMGPDGLPVDASSVSNNYIQTLGRDFRKNGNGGPGPYVGQAGTATLPRNFHYPPDGYSRHYEDGYPGGSDNYGSLSRVTRIEERYRPSMEGYRAPSRQDVYGPQPQVRVGGSSVDLHRFHPEPYGLEDDQRSMGYDDLDYGMMSDYGTARRTGTPSDPRRRLRSYEDMIGEEVPSDQYYWAPLAQHERGSLASLDSLRKGGPPPPNWRQPELPEVIAMLGFRLDAVKSNAAAYLQHLCYRNDKVKTDVRKLKGIPVLVGLLDHPKKEVHLGACGALKNISFGRDQDNKIAIKNCDGVPALVRLLRKARDMDLTEVITGTLWNLSSHDSIKMEIVDHALHALTDEVIIPHSGWEREPNEDCKPRHIEWESVLTNTAGCLRNVSSERSEARRKLRECDGLVDALIFIVQAEIGQKDSDSKLVENCVCLLRNLSYQVHREIPQAERYQEAAPNVANNTGPHAASCFGAKKGKDEWFSRGKKPIEDPANDTVDFPKRTSPARGYELLFQPEVVRIYISLLKESKTPAILEASAGAIQNLCAGRWTYGRYIRSALRQEKALSAIADLLTNEHERVVKAASGALRNLAVDARNKELIGKHAIPNLVKNLPGGQQNSSWNFSEDTVISILNTINEVIAENLEAAKKLRETQGIEKLVLINKSGNRSEKEVRAAALVLQTIWGYKELRKPLEKEGWKKSDFQVNLNNASRSQSSHSYDDSTLPLIDRNQKSDKKPDREEIQMSNMGSNTKSLDNNYSTPNERGDHNRTLDRSGDLGDMEPLKGTTPLMQDEGQESLEEELDVLVLDDEGGQVSYPSMQKI |  | binds |

Reference: article PMC4694698
